# Data from PubChem BioAssay AID504444 (National Center for Advancing Translational Sciences (NCATS), 2011).
# About 7,500 (2.1%) of roughly 360,000 compounds were called active. The shares of active, inactive and inconclusive entries below differ from those in the screen. The call rests on the fitted dose curve; in most records, active means well fitted inhibition curve with a large enough effect; inconclusive means small, poorly fitted or top-dose-only effect, or effect the other way; inactive means flat fitted curve, though single readings scatter. Potencies beside an inconclusive call are fits to weak or partial responses and may not hold up.
# Test: Nrf2 qHTS screen for inhibitors; further: nearly all actives have a fitted effect of over 60% in size
# Conditions: A549 ARE-Fluc reporter, luciferase luminescence, 18-24 h; series mostly up to 46 µM
# Procedure, shortened: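 Quantitative HTS in A549 cells stably bearing an antioxidant response element-firefly luciferase construct. Inhibition of Nrf2-driven transcription was scored by luminescence after 18-24 h of compound exposure at 37 °C.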
# Potency means the concentration at half of the fitted maximal effect.
row,Structure (SMILES),Potency
1,CC(=O)Nc1ccc(N=Nc2c(C)[nH]n(C(N)=S)c2=O)cc1,"inconclusive: 23.1 µM [activator, single point]"
2,C=CCOc1ccc(Cl)cc1C(=O)O,"inconclusive: 16.4 µM [activator, partial curve, poor fit]"
3,O=C(CNCCc1ccccc1)Nc1ccc(C(=O)N2CCCCC2)cc1,"inconclusive: 32.6 µM [falling, single point]"
4,N#Cc1ccc(C=NN2CCCCCC2)cc1,"inconclusive: 18.4 µM [activator, single point]"
5,Cc1ccccc1CSc1nc(-c2ccccc2)nc2c1Cc1c(CO)cnc(C)c1O2,"inconclusive: 29.1 µM [activator, single point]"
6,CCCCc1nc2ccccc2n1CC(=O)NN,"inconclusive: 0.092 µM [falling, full curve, poor fit]"
7,CCCCn1c(Cl)nc2c1c(=O)n(C)c(=O)n2C,inactive
8,COc1cccc(C2c3c(ncn(-c4ccccc4Br)c3=N)Oc3ccc4ccccc4c32)c1 (centres undefined),inactive
9,Nc1c(C(=O)NC2CCCCC2)nsc1C(=O)OCC(=O)NC1CCCCC1,inactive
10,CC(=O)C1C(c2ccc(O)cc2)NC(=O)NC1(O)C(F)(F)F (centres undefined),inactive
11,CC(=O)Nc1ccc2c(c1)CCc1ccccc1-2,"inconclusive: 18.4 µM [activator, partial curve, poor fit]"
12,COc1ccc(-c2nc(C#N)c(NCCCn3ccnc3)o2)cc1OC,"inconclusive: 5.8 µM [activator, partial curve, poor fit]"
13,c1ccc(CN2CCC(Nc3ncnc4sccc34)CC2)cc1,inactive
14,CC(C)S(=O)(=O)c1oc(-c2ccc(F)cc2)nc1S(=O)(=O)c1ccc(F)cc1,"inconclusive: 20.6 µM [falling, partial curve]"
15,Cc1cc(-c2cc(C(=O)NCc3ccccc3)on2)nc(S(C)(=O)=O)n1,"inconclusive: 29.1 µM [falling, single point]"
16,CC(C)(C)C1CCC(C(=O)Nc2cccnc2)CC1 (centres undefined),"inconclusive: 29.1 µM [falling, single point]"
17,CSc1cccc(NC(=O)CCCOc2ccc(Cl)cc2C)c1,inactive
18,CCCNC(=O)c1ccccc1NC(=O)COc1cccc2c1OC(C)(C)C2,inactive
19,O=C(O)CSc1nnc(-c2ccc(Cl)cc2Cl)n1-c1ccc(Br)cc1,inactive
20,NC(=O)c1ccsc1NC(=O)COC(=O)/C=C/c1ccccc1,inactive
21,COc1ccc(N2CCN(S(=O)(=O)c3c(C)[nH]c(C)c3C(=O)N3CCCCC3)CC2)cc1,"inconclusive: 32.6 µM [activator, partial curve, poor fit]"
22,CCc1c(C(=O)Nc2cc(C)ccc2OC)[nH]c(C)c1C(C)=O,"inconclusive: 29.1 µM [falling, single point]"
23,COc1ccc(OCCOC(=O)CNS(=O)(=O)c2ccc(SC)c([N+](=O)[O-])c2)cc1,"inconclusive: 13 µM [activator, partial curve]"

row,Structure (SMILES),Potency
1,Cc1cc(Cl)c(S(=O)(=O)N2CCN(c3cccc(C)c3C)CC2)cc1OCC(N)=O,"inconclusive: 29.1 µM [falling, single point]"
2,Cc1ccc(NC(=O)CCNC(=O)c2ccc(Br)cc2)cc1S(=O)(=O)N1CCCCCC1,"inconclusive: 29.1 µM [falling, partial curve, poor fit]"
3,CNc1nc2c(c(=O)n(C)c(=O)n2C)n1Cc1ccccc1,active: 7.31 µM
4,Cc1ccc(C)c(N2CCN(C(=O)CCc3nc(-c4cccc(Cl)c4)no3)CC2)c1,"inconclusive: 3.66 µM [activator, full curve, poor fit]"
5,Cn1c(N2CCC(C(N)=O)CC2)nc2c1c(=O)n(Cc1ccc(Br)cc1)c(=O)n2C,"inconclusive: 14.6 µM [falling, partial curve, poor fit]"
6,COc1ccccc1C(=O)NCCC(=O)N1CC=C(c2ccccc2)CC1,"inconclusive: 32.6 µM [falling, single point]"
7,Cc1ccc(-n2c(C)cc(C(=O)COc3cccnc3[N+](=O)[O-])c2C)cc1,active: 3.26 µM
8,COc1ccc(CCC(=O)OCC(=O)NC(=O)c2ccc(Cl)cc2)cc1,inactive
9,Cc1ccc(CSc2nc3ccncc3[nH]2)cc1,"inconclusive: 29.1 µM [falling, single point]"
10,Cc1ccc2oc(/N=C(\N)NC(=O)C(C)(C)C)nc2c1,active: 13 µM
11,O=C(c1ccc(CSc2nc3ccncc3n2Cc2ccccc2F)cc1)N1CCCCCC1,inactive
12,Cc1ccccc1CN1CCc2cc([N+](=O)[O-])ccc21,inactive
13,Cc1cc(=O)oc2c3c(cc(OCC(=O)NCc4ccccc4)c12)OC(C)(C)CC3,"inconclusive: 29.1 µM [falling, single point]"
14,CCOc1ccc(CCNC(=O)CCc2cn(Cc3ccc(C)cc3)c3ccccc23)cc1,"inconclusive: 25.9 µM [falling, partial curve, poor fit]"
15,O=C(Nc1ccc2c(c1)CCC2)C1COc2ccccc2O1 (centres undefined),"inconclusive: 20.6 µM [activator, partial curve, poor fit]"
16,Cc1[nH]c2ccccc2c1CC(=O)O,"inconclusive: 1.84 µM [falling, partial curve, poor fit]"
17,Cc1ccn2c(NCc3ccco3)c(-c3ccccc3)nc2c1,"inconclusive: 25.9 µM [activator, partial curve, poor fit]"
18,CCC(=O)Nc1ccccc1-c1nc2ccccc2n(C(CC)C(=O)Nc2cccc(C(C)=O)c2)c1=O (centres undefined),"inconclusive: 29.1 µM [activator, single point]"
19,Cc1c(C)c(C)c(S(=O)(=O)n2[nH]c(=O)c(CCO)c2C)c(C)c1C,"inconclusive: 29.1 µM [falling, single point]"
20,CC(C)(C)C1CCc2nc(NC(=O)COc3ccc(F)cc3)sc2C1 (centres undefined),inactive
21,Cc1ccc(/C(N)=N/OC(=O)c2ccco2)cc1,"inconclusive: 2.59 µM [activator, full curve]"
22,O=C(CSc1nc2ccccc2c(=O)n1Cc1ccco1)N1CCCCCC1,"inconclusive: 29.1 µM [falling, single point]"
23,C[C@@H](OC(=O)c1[nH]cnc1C(=O)NCc1ccc(CNC(=O)OC(C)(C)C)cc1)c1ccccc1,"inconclusive: 20.6 µM [falling, single point]"

row,Structure (SMILES),Potency
1,CC(=O)Nc1ccc(-n2cc3c(c2-c2ccc(C)cc2)c(=O)n(C)c(=O)n3C)cc1,"inconclusive: 5.17 µM [falling, partial curve]"
2,CCOC(=O)c1ccc(NC(=O)COc2ccccc2OC)cc1,"inconclusive: 0.103 µM [falling, full curve, poor fit]"
3,Cc1oc(-c2ccc(C(=O)Nc3ccc(F)cc3F)cc2)nc1COc1ccccc1,"inconclusive: 5.8 µM [falling, partial curve, poor fit]"
4,CC(C)(C)c1ccc(OCCSc2nc(-c3cccs3)nc3cc(=O)[nH]n23)cc1,inactive
5,Cc1c(/C(O)=C2/C(=O)C(=O)N(CCN3CCOCC3)C2c2ccco2)cnn1-c1ccccc1 (centres undefined),"inconclusive: 18.4 µM [activator, single point]"
6,O=C(Nc1ccc(N2CCCCCC2)cc1)c1ccccc1Cl,"inconclusive: 18.4 µM [activator, partial curve]"
7,COc1ccc(Nc2oc(-c3ccc(COc4ccc(OC)cc4)o3)nc2C#N)cc1,inactive
8,CC(C)c1ccc(Nc2cc(C(=O)NCCc3ccccc3)c3ccccc3n2)cc1,"inconclusive: 3.26 µM [falling, partial curve, poor fit]"
9,O=C(CSc1nc2scc(-c3ccccc3)c2c(=O)[nH]1)Nc1ccccc1,"inconclusive: 29.1 µM [falling, single point]"
10,Cc1ccc(-c2onc(C)c2C)cc1S(=O)(=O)N1CC(C)Oc2ccccc21 (centres undefined),"inconclusive: 29.1 µM [falling, single point]"
11,Cc1csc(N(C)C(=O)CSc2nnc(COc3cccc4ccccc34)o2)n1,active: 20.6 µM
12,CCC(C)NC(=O)C1CCN(C(=O)c2cc3sccc3n2Cc2ccc(Cl)cc2)CC1 (centres undefined),active: 2.31 µM
13,CC(=O)Nc1ccc(S(=O)(=O)NCCN2CCNC2=O)cc1Cl,"inconclusive: 18.4 µM [falling, partial curve]"
14,Cc1cccc(N2C(S)=C(C#N)C(=O)NC2c2ccco2)c1 (centres undefined),inactive
15,Cc1cc2oc(C(=O)N(Cc3ccccc3)C3CCS(=O)(=O)C3)c(C)c2cc1C (centres undefined),"inconclusive: 10.3 µM [falling, partial curve]"
16,COc1ccccc1CN1CCN(C(=O)c2ccncc2)CC1,inactive
17,COc1ccc(C2C(C#N)=C3NC(=O)c4c(sc5c4CCCCC5)N3C3=C2C(=O)CC(C)(C)C3)cc1 (centres undefined),"inconclusive: 25.9 µM [falling, single point]"
18,O=C(Nc1cccc(F)c1)C1CC(=O)N(c2ccc(Br)cc2)C1 (centres undefined),inactive
19,CSc1ccccc1OCc1cc(C(=O)NCCn2nc(C)cc2C)no1,"inconclusive: 29.1 µM [falling, partial curve, poor fit]"
20,Cc1cccn2c(=O)c3cc(C(=O)NCCc4ccc(S(N)(=O)=O)cc4)n(C)c3nc12,inactive
21,Cc1cc(C)cc(N(C(=O)c2snc(C(N)=O)c2N)C(C(=O)NCC2CCCO2)c2cccs2)c1 (centres undefined),inactive
22,COc1ccc(OC)c(C2C(C(N)=O)=C(C)Nc3nc(-c4cccc(Cl)c4)nn32)c1 (centres undefined),"inconclusive: 20.6 µM [falling, partial curve, poor fit]"
23,COc1ccc(/C=C/c2nc3ccccc3n2Cc2ccc(OC)c(OC)c2)cc1,"inconclusive: 8.2 µM [falling, single point]"

# As a working copy, part of the list above.
row,Structure (SMILES),Potency
3,Cc1oc(-c2ccc(C(=O)Nc3ccc(F)cc3F)cc2)nc1COc1ccccc1,"inconclusive: 5.8 µM [falling, partial curve, poor fit]"
4,CC(C)(C)c1ccc(OCCSc2nc(-c3cccs3)nc3cc(=O)[nH]n23)cc1,inactive
5,Cc1c(/C(O)=C2/C(=O)C(=O)N(CCN3CCOCC3)C2c2ccco2)cnn1-c1ccccc1 (centres undefined),"inconclusive: 18.4 µM [activator, single point]"
